No constants are given. Whether binding was seen depends on the method and setting. Some results given as binding are weak or reduced against the parent protein; the word gives no strength.
How the values were obtained:
[1] = target: tumor necrosis factor alpha (human (produced in the Human Secretome Project)) (UniProt P01375); test: SPR multi-cycle analysis
Human Serum Albumin [2] = target: T1, Human Serum Albumin (human, UniProt P02768 25-609); test: SPR capture assay or HSA preincubation
T1 construct: also called HSA

The chains behind the UniProt entries cited, without tags or fusion partners. Residues count along the entry.
UniProt P01375, residues 77-233: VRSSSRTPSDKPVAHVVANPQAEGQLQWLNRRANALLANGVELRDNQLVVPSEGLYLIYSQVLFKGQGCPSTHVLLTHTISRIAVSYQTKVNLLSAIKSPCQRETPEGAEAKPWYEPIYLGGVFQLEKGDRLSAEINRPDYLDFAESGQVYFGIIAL
UniProt P02768, residues 25-609: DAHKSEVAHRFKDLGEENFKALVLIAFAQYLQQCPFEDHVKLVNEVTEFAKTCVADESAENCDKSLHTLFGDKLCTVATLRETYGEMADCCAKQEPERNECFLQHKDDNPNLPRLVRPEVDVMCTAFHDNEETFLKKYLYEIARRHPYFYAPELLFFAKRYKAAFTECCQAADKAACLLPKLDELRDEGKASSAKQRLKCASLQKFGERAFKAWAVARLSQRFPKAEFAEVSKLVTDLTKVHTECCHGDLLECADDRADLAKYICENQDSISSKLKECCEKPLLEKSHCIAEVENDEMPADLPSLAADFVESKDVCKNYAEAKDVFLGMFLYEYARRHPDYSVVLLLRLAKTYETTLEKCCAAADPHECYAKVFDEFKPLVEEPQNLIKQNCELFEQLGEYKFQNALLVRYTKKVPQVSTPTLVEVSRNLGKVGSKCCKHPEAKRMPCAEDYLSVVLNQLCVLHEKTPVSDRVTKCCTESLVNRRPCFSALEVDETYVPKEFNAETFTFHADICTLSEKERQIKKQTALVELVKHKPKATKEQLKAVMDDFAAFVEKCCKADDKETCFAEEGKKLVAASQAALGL
UniProt P03950, residues 25-147: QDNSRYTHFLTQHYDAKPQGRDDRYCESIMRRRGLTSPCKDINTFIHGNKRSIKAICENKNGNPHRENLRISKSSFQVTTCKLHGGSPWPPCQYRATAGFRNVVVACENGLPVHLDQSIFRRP

Human Serum Albumin [3] = target: T1, Human Serum Albumin; test: SPR, compared with the reported affinity of ABD035
Human Serum Albumin [4] = target: T1, Human Serum Albumin; test: SPR capture assay, ADAPT captured on HSA, target injected
[5] = target: tumor necrosis factor alpha (human (produced in the Human Secretome Project)) (UniProt P01375); test: as above
Human Serum Albumin [6] = target: T1, Human Serum Albumin; test: SPR capture assay, ADAPT variant injected over immobilised HSA
[7] = target: tumor necrosis factor alpha (human (produced in the Human Secretome Project)) (UniProt P01375); test: SPR capture assay, ADAPT variant captured on immobilised HSA, then 200 nM TNFα injected
[8] = target: tumor necrosis factor alpha (human (produced in the Human Secretome Project)) (UniProt P01375); test: SPR capture assay, ADAPT variant captured on immobilised HSA, then 500 nM TNFα injected
[9] = target: T2, myeloid-derived growth factor (human (produced in the Human Secretome Project)) (UniProt Q969H8); test: SPR multi-cycle analysis
T2 sequence (looked up): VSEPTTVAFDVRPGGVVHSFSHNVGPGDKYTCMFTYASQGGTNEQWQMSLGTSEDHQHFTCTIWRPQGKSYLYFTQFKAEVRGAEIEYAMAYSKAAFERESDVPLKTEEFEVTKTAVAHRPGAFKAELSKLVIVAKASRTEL

[10] = target: T2, myeloid-derived growth factor (human (produced in the Human Secretome Project)); test: SPR capture assay, ADAPT captured on HSA, target injected
[11] = target: T2, myeloid-derived growth factor (human (produced in the Human Secretome Project)); test: SPR capture assay, ADAPT variant captured on immobilised HSA, then 500 nM MYDGF injected
Human Serum Albumin [12] = target: T1, Human Serum Albumin; test: SPR
Human Serum Albumin [13] = target: T1, Human Serum Albumin; test: SPR sensorgrams, FIG. 2A
Human Serum Albumin [14] = target: T1, Human Serum Albumin; test: size-exclusion chromatography of HSA, ADAPT and insulin mixed 1:1:1
Human Serum Albumin [15] = target: T1, Human Serum Albumin; test: SPR (Biacore), ADAPT injected alone at 31.25-500 nM over immobilised HSA
Human Serum Albumin [16] = target: T1, Human Serum Albumin; test: phage display selection after two panning rounds; simultaneous binding of Insulin and albumin
Human Serum Albumin [17] = target: T1, Human Serum Albumin; test: analytical SEC (Superdex 75 5/150), samples mixed 1:1 or 1:1:1 and injected, overlaid with the single partners
Human Serum Albumin [18] = target: T1, Human Serum Albumin; test: SPR (Biacore), ADAPT preincubated with a molar excess of soluble HSA, injected at 31.25-500 nM over immobilised HSA (soluble HSA as competitor)
[19] = target: angiogenin (human (produced in the Human Secretome Project)) (UniProt P03950); test: SPR multi-cycle analysis
[20] = target: angiogenin (human (produced in the Human Secretome Project)) (UniProt P03950); test: SPR capture assay, ADAPT captured on HSA, target injected
[21] = target: angiogenin (human (produced in the Human Secretome Project)) (UniProt P03950); test: SPR capture assay, ADAPT variant captured on immobilised HSA, then 500 nM angiogenin injected
[22] = target: T3, C-reactive protein (human (produced in the Human Secretome Project)) (UniProt P02741); test: SPR multi-cycle analysis
T3 sequence (looked up): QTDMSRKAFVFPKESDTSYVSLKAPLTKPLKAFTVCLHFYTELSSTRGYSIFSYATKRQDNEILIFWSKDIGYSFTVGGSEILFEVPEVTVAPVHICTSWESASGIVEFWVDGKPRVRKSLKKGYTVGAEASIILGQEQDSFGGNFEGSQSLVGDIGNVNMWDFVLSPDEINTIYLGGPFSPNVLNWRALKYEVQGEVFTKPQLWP

[23] = target: T4, renin (human (produced in the Human Secretome Project)) (UniProt P00797); test: SPR multi-cycle analysis
T4 sequence (looked up): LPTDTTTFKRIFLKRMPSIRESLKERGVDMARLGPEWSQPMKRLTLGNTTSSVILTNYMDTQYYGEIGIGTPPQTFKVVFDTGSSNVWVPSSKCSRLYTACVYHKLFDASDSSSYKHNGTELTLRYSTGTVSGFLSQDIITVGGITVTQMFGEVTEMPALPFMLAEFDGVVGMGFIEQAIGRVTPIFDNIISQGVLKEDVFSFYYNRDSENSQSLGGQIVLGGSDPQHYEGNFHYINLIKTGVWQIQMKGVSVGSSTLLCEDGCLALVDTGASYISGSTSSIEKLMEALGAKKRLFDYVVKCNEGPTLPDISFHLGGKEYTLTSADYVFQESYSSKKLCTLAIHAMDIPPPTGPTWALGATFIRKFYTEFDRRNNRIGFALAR

Measured: binding

B1: ADAPT variant TNFα_05 (designed binder)
chain: LIWAKAEAVQELFMYGVSDFYYDLIIKAKTVEGVEALKLHILAALP
notes: Single domain of about 6 kDa, made in E. coli, purified on HSA resin
binds: [1] | Human Serum Albumin [2] | Human Serum Albumin [3] | Human Serum Albumin [4] | [5] | Human Serum Albumin [6] | [7]

LIWAKASAVRELHRYGVSDFYYELIVKAKTVEGVEALKLHILAALP (designed binder) [ADAPT variant TNFα_09]
binds: [1] | Human Serum Albumin [2] | Human Serum Albumin [3] | Human Serum Albumin [4] | [5] | Human Serum Albumin [6] | [8]

LWWAKVWAVAELQKYGVSDFYFKLIDKAKTVEGVEALKLHILAALP (designed binder) [ADAPT variant MYDGF_07]
binds: [9] | Human Serum Albumin [2] | Human Serum Albumin [3] | Human Serum Albumin [4] | [10] | Human Serum Albumin [6] | [11]

LAIAKAYAQYELSFYGVSDFYRELIVKAKTVEGVEALKLHILAALP (designed binder, also called INS_02) [ADAPT variant Insulin_02]
binds: Human Serum Albumin [12] | Human Serum Albumin [13] | Human Serum Albumin [3] | Human Serum Albumin [4] | Human Serum Albumin [14] | Human Serum Albumin [6] | Human Serum Albumin [15] | Human Serum Albumin [16] | Human Serum Albumin [17] | Human Serum Albumin [18]

LWWAKVSAIKELQAYGVSDFYYMLITKAKTVEGVEALKLHILAALP (designed binder) [ADAPT variant MYDGF_08]
binds: [9] | Human Serum Albumin [2] | Human Serum Albumin [3] | Human Serum Albumin [4] | [10] | Human Serum Albumin [6] | [11]

LYVAKDNADWELWQYGVSDFYRSLIWKAKTVEGVEALKLHILAALP (designed binder) [ADAPT variant ANG_16]
binds: [19] | Human Serum Albumin [2] | Human Serum Albumin [3] | Human Serum Albumin [4] | [20] | Human Serum Albumin [6] | [21]

LYWAKDYADYELWQYGVSDFYRSLIWKAKTVEGVEALKLHILAALP (designed binder, also called ANG_2) [ADAPT variant ANG_02]
binds: [19] | Human Serum Albumin [2] | Human Serum Albumin [3] | Human Serum Albumin [4] | [20] | Human Serum Albumin [6] | [21]

LWAAKDDADWELWQYGVSDFYRALIWKAKTVEGVEALKLHILAALP (designed binder, also called ANG_6) [ADAPT variant ANG_06]
binds: [19] | Human Serum Albumin [2] | Human Serum Albumin [3] | Human Serum Albumin [4] | [20] | Human Serum Albumin [6] | [21]

LHEAKDWADYELWSYGVSDFYRALIWKAKTVEGVEALKLHILAALP (designed binder) [ADAPT variant ANG_13]
binds: [19] | Human Serum Albumin [2] | Human Serum Albumin [3] | Human Serum Albumin [4] | [20] | Human Serum Albumin [6] | [21]

LVIAKAYAQYELAFYGVSDFYSDLIKKAKTVEGVEALKLHILAALP (designed binder, also called INS_01) [ADAPT variant Insulin_01]
binds: Human Serum Albumin [2] | Human Serum Albumin [3] | Human Serum Albumin [4] | Human Serum Albumin [6] | Human Serum Albumin [16]

LAVAKAYAKYELAFYGVSDFYNELILKAKTVEGVEALKLHILAALP (designed binder, also called INS_03) [ADAPT variant Insulin_03]
binds: Human Serum Albumin [2] | Human Serum Albumin [3] | Human Serum Albumin [4] | Human Serum Albumin [6] | Human Serum Albumin [16]

LRVAKSMAWHELWSYGVSDFYLRLIDKAKTVEGVEALKLHILAALP (designed binder) [ADAPT variant CRP_09]
binds: [22] | Human Serum Albumin [3]

LSKAKAQAWHELYYYGVSDFYLSLIDKAKTVEGVEALKLHILAALP (designed binder) [ADAPT variant CRP_23]
binds: [22] | Human Serum Albumin [3]

LKVAKIIAFHELWEYGVSDFYLSLIDKAKTVEGVEALKLHILAALP (designed binder) [ADAPT variant CRP_38]
binds: [22] | Human Serum Albumin [3]

LHYAKIMAFHELWQYGVSDFYLQLIDKAKTVEGVEALKLHILAALP (designed binder) [ADAPT variant CRP_48]
binds: [22] | Human Serum Albumin [3]

LYHAKWMASLELAKYGVSDFYWNLISKAKTVEGVEALKLHILAALP (designed binder) [ADAPT variant REN_01]
binds: [23] | Human Serum Albumin [3]

LMWAKAEAAIELVDYGVSDFYQYLISKAKTVEGVEALKLHILAALP (designed binder) [ADAPT variant REN_40]
binds: [23] | Human Serum Albumin [3]
